Source: article PMC11574271

Amino acid sequences for entries named in this document (tags omitted). A change or cut given only in a name is not applied to a line headed by its entry. Residues count along the entry.
UniProt Q04912, residues 25-1400: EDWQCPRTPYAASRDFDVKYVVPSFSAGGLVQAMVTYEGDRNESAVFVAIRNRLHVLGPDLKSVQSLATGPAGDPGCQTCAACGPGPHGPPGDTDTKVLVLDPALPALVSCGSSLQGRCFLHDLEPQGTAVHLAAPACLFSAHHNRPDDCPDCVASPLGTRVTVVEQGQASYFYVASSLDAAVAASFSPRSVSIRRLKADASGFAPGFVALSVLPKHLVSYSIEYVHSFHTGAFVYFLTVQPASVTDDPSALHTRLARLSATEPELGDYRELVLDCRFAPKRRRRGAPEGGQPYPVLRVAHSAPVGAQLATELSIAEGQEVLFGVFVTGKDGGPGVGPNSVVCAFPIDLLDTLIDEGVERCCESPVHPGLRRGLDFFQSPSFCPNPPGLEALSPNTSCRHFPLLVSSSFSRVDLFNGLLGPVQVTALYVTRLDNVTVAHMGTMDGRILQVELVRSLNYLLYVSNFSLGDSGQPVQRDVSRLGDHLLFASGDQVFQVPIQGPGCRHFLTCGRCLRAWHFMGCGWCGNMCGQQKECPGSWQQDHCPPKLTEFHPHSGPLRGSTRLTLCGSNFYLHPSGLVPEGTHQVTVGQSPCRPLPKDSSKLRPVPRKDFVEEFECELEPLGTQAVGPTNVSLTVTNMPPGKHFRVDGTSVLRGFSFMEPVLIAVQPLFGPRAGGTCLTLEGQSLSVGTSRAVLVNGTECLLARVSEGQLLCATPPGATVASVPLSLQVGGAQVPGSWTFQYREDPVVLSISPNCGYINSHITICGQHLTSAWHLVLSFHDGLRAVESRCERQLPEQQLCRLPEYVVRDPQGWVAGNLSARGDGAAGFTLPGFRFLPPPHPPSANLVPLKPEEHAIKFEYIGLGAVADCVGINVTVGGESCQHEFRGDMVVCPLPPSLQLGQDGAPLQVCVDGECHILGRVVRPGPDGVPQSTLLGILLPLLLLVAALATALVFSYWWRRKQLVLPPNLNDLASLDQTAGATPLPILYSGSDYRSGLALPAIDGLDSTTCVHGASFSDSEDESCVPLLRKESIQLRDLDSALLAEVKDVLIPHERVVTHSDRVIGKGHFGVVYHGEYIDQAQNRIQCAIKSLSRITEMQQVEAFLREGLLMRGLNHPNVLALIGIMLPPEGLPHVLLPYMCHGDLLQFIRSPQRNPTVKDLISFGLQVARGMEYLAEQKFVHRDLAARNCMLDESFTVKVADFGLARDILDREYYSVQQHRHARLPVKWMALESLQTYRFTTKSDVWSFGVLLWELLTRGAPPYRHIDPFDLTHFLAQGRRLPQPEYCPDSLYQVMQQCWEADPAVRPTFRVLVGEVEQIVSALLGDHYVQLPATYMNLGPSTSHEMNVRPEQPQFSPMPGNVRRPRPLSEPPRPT
UniProt P39900: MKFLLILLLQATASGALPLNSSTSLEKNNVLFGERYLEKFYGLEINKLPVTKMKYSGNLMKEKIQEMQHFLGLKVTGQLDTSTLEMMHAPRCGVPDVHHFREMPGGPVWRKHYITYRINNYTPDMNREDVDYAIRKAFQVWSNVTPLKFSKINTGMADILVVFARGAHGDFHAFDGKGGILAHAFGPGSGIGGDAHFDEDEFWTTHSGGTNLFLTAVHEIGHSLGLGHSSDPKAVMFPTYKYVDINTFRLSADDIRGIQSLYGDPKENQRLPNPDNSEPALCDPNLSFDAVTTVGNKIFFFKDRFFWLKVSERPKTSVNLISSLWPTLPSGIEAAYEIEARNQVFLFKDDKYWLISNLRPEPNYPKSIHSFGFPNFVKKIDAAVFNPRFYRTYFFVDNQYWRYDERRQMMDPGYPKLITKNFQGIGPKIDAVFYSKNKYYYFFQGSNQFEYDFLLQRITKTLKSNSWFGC

Biological target: RON receptor tyrosine kinase (recepteur d'Origine nantais) (human) (UniProt Q04912)
Test: co-IP; cells lysed in RIPA buffer with PMSF and protease inhibitor; lysate mixed with specific antibodies, then protein G Sepharose beads; isotype-matched IgG as control; Western blot; several cell lines tested

“matrix metalloproteinase-12 (MMP12) (from UniProt P39900) (enzyme)” was tested, and the binding was “no binding”.

No constants are given. Whether binding was seen depends on the method and setting. Binding seen in cells or lysates may run through a third protein.
